Measurements from the supplement of paper PMC4604168 (melanoma cell lines).
This is one part of the list. Repeats are few or missing, and single values can be far off.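 Imaging used 1,536-well plates; nuclei positive for cleaved PARP by antibody were divided by total DNA-stained nuclei to yield the apoptosis fraction. Doses for screening kept most cells viable, and cell lines differ markedly in resting and induced cleaved-PARP levels.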

Tests used:
Experiment in all cases: cleaved PARP positive nuclei fraction relative to DMSO control; melanoma cells; higher = more apoptosis
Conditions in all cases: library dose: low library concentration; 72 h
501Mel = tested on: 501Mel
A101D = tested on: A101D
A2058 = tested on: A2058
C32 = tested on: C32
CBRC008 = tested on: CBRC008 (line from a melanoma biopsy)
CBRC014 = tested on: CBRC014 (line from a melanoma biopsy)
CBRC016 = tested on: CBRC016 (line from a melanoma biopsy)
CBRC017 = tested on: CBRC017 (line from a melanoma biopsy)

| Compound | cleaved PARP positive nuclei fraction (501Mel) [%] | cleaved PARP positive nuclei fraction (A101D) [%] | cleaved PARP positive nuclei fraction (A2058) [%] | cleaved PARP positive nuclei fraction (C32) [%] | cleaved PARP positive nuclei fraction (CBRC008) [%] | cleaved PARP positive nuclei fraction (CBRC014) [%] | cleaved PARP positive nuclei fraction (CBRC016) [%] | cleaved PARP positive nuclei fraction (CBRC017) [%] |
| --- | --- | --- | --- | --- | --- | --- | --- | --- |
| CC(=O)O[C@@]12CO[C@@H]1C[C@H](O)[C@@]1(C)C(=O)[C@H](O)C3=C(C)[C@@H](OC(=O)[C@H](O)[C@@H](NC(=O)OC(C)(C)C)c4ccccc4)C[C@@](O)([C@@H](OC(=O)c4ccccc4)[C@H]21)C3(C)C [Docetaxel] + COc1cc(N2CCC(N3CCN(C)CC3)CC2)ccc1Nc1ncc(Cl)c(Nc2ccccc2S(=O)(=O)C(C)C)n1 [NVP-TAE684] (first compound 0.0001 µM, partner dose 0.08 µM) | 93.6 | 44.3 | 4130 | 268 | 542 | 177 | 266 | 139 |
| C[C@]1(O)C[C@@H](c2nc(-c3ccc4ccc(-c5ccccc5)nc4c3)c3c(N)nccn32)C1 + O=C(Nc1ccccc1)c1cc([N+](=O)[O-])ccc1Cl [GW9662] (first compound 0.4 µM, partner dose 2 µM) | 39.1 | 9.26 | 126 | 37.8 | 345 | 117 | 19.7 | 95.3 |
| C[C@]1(O)C[C@@H](c2nc(-c3ccc4ccc(-c5ccccc5)nc4c3)c3c(N)nccn32)C1 + COc1cc(N2CCC(N3CCN(C)CC3)CC2)ccc1Nc1ncc(Cl)c(Nc2ccccc2S(=O)(=O)C(C)C)n1 [NVP-TAE684] (first compound 0.4 µM, partner dose 0.08 µM) | 144 | 45.1 | 78 | 86.2 | 194 | 166 | 66.2 | 82 |
| Cn1sc(=O)n(Cc2ccccc2)c1=O + O=c1cc(-c2cccc3c2Sc2ccccc2S3)oc(N2CCOCC2)c1 [KU55933] (first compound 0.4 µM, partner dose 1 µM) | 60.3 | 27.9 | 73.7 | 126 | 68.4 | 71.4 | 1720 | 87.2 |
| Cn1sc(=O)n(Cc2ccccc2)c1=O + COc1ccc2c(c1)CCC1C2CCC2(C)C(NCCCCCCN3C(=O)C=CC3=O)CCC12 [U73122] (first compound 0.4 µM, partner dose 0.4 µM) | 36.6 | 43.9 | 134 | 150 | 149 | 96.7 | 60.9 | 117 |
